Reference: PubChem BioAssay AID743121 (NCATS, 2013)

Test: 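Partners whose loss is lethal together with topoisomerase I blockade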 (primary screen)
System: MDA-MB-231 cells, a human breast cancer line
Knock-down reagent: single siRNA against human genes, 20 nM siRNA (0.8 pmol per well)
Duration: 120 h (drug added 48 h after transfection, read 72 h later)
Treatment: camptothecin 20 nM (about EC30) for 72 h; vehicle 0.1% DMSO in parallel plates
Detection: 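Cell viability by ATP luminescence (CellTiter-Glo) as % of non-targeting siRNA wells, and the log2 ratio of viability without drug over viability with camptothecin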
Scale: log2 vehicle/camptothecin viability: higher = stronger sensitisation to camptothecin
Rule for the call: 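Active genes have an RSA gene-level p-value below 0.001, computed from the ratios of their separate siRNAs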
The deposit covers about 26,000 reagents; shown is a random part of them. In the full data, 167 (0.63%) are marked active. 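Calls are per gene from RSA p-values that are not deposited; an individual active-marked siRNA can sensitise only weakly.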 The numbers tell different reagents against one gene apart. Not all columns of the deposit are shown.

log2 vehicle/camptothecin viability, by gene and reagent
REEP6 (receptor accessory protein 6): #1 -0.244 inactive; #2 -0.831 inactive; #3 -0.214 inactive; #4 -0.179 inactive
AKAP14 (A-kinase anchoring protein 14): #1 -0.217 inactive; #2 -0.113 inactive; #3 1.13 inactive; #4 -0.538 inactive
RTEL1 (regulator of telomere elongation helicase 1): #1 -0.259 inactive; #2 0.13 inactive; #3 -0.146 inactive; #4 -0.466 inactive
IGF2R (insulin like growth factor 2 receptor): #1 -0.0691 inactive; #2 -0.249 inactive; #3 -0.224 inactive; #4 -0.213 inactive
DSPP (dentin sialophosphoprotein): #1 -0.199 inactive; #2 0.37 inactive; #3 -0.118 inactive; #4 -0.462 inactive
SAFB (scaffold attachment factor B): #1 1.03 inactive; #2 -0.202 inactive; #3 0.0617 inactive
MTMR7 (myotubularin related protein 7): #1 -0.00508 inactive; #2 -0.0272 inactive; #3 1.07 inactive; #4 -0.764 inactive
THRB (thyroid hormone receptor beta): #1 -0.0548 inactive; #2 -0.168 inactive; #3 -0.173 inactive; #4 -0.175 inactive
MAP4K5 (mitogen-activated protein kinase kinase kinase kinase 5): #1 -0.139 inactive; #2 -0.122 inactive; #3 -0.233 inactive; #4 -0.524 inactive
AMIGO2 (adhesion molecule with Ig like domain 2): #1 -0.363 inactive; #2 -0.109 inactive; #3 -0.245 inactive
NPR2 (natriuretic peptide receptor 2): #1 -0.128 inactive; #2 -0.31 inactive; #3 0.944 inactive; #4 -0.262 inactive
GNA13 (G protein subunit alpha 13): #1 -0.235 inactive; #2 -0.125 inactive; #3 -0.756 inactive
RFX1 (regulatory factor X1): #1 1.85 inactive; #2 -0.573 inactive; #3 -0.315 inactive; #4 0.021 inactive
IL2RG (interleukin 2 receptor subunit gamma): #1 -0.0251 inactive; #2 -0.325 inactive; #3 -0.16 inactive; #4 -0.197 inactive
PTPRB (protein tyrosine phosphatase receptor type B): #1 0.0384 inactive; #2 -0.0316 inactive; #3 0.0948 inactive; #4 -0.507 inactive
ADH1B (alcohol dehydrogenase 1B (class I), beta polypeptide): #1 -0.207 inactive; #2 0.0239 inactive; #3 -0.278 inactive; #4 -0.22 inactive
CPVL (carboxypeptidase vitellogenic like): #1 -0.0779 inactive; #2 -0.321 inactive; #3 -0.092 inactive; #4 -0.113 inactive
DDR1 (discoidin domain receptor tyrosine kinase 1): #1 -0.0832 inactive; #2 -0.704 inactive; #3 0.596 inactive; #4 1.09 inactive

Look-ups from above.
Result for DDR1 (discoidin domain receptor tyrosine kinase 1) #3 under “Call”: inactive
Result of THRB (thyroid hormone receptor beta) #4 in “log2 vehicle/camptothecin viability”: -0.175
Value for IGF2R (insulin like growth factor 2 receptor) #3 under “Call”: inactive
Under “Call”, MAP4K5 (mitogen-activated protein kinase kinase kinase kinase 5) #4 has inactive
Entry for NPR2 (natriuretic peptide receptor 2) #3 in “log2 vehicle/camptothecin viability”: 0.944
Result for MTMR7 (myotubularin related protein 7) #3 under “Call”: inactive
